# Results are given in words; binding and its absence hold for the method and conditions named. In cells and extracts the contact can be indirect. Some entries that bind do so weakly or less than the wild type.
# Protein sequences, listed by entry. Tags and fused reporters are not part of them. Lines headed by an entry give the natural chain unless they say otherwise; changes in a name come on top. Residues count along the entry.
# UniProt Q02763: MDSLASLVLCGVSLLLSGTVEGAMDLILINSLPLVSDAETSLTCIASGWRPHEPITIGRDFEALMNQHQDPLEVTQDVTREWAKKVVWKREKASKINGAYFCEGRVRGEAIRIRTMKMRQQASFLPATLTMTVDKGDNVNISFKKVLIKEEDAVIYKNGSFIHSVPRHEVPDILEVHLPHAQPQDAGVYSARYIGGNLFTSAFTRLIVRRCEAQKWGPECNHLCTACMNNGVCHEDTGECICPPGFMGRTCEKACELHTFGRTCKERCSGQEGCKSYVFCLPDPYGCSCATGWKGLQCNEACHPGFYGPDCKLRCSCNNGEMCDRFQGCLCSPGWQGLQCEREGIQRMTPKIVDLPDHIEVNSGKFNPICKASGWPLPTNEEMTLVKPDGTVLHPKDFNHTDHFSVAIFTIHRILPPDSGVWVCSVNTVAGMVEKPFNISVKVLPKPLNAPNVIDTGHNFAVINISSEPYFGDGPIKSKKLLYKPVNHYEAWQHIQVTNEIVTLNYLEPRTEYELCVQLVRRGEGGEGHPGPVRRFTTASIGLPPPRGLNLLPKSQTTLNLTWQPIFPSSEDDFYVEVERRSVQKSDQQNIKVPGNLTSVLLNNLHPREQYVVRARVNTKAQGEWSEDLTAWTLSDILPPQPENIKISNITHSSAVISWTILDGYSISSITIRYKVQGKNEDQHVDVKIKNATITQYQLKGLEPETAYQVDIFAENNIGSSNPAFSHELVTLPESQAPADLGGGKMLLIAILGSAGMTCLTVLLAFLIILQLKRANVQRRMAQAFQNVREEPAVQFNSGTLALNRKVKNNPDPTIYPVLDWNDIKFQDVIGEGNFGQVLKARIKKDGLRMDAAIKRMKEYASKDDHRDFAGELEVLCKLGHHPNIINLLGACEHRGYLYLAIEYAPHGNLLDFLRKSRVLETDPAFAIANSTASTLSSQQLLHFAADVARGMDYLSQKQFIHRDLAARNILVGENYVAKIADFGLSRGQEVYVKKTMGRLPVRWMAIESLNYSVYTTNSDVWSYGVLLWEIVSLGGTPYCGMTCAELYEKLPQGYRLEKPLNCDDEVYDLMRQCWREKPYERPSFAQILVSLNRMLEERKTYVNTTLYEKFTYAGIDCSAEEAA
# Tie2-Fc: residues 23-748 of Q02763
# B1: ANG1-C4BP (designed binder, not shown: small tags and cut ends)
# chain: KPFRDCADVYQAGFNKSGIYTIYINNMPEPKKVFCNMDVNGGGWTVIQHREDGSLDFQRGWKEYKMGFGNPSGEYWLGNEFIFAITSQRQYMLRIELMDWEGNRAYSQYDRFHIGNEKQNYRLYLKGHTGTAGKQSSLILHGADFSTKDADNDNCMCKCALMLTGGWWFDACGPSNLNGMFYTAGQNHGKLNGIKWHYFKGPSYSLRSTTMMIRPLDFGGGGSETPEGCEQVLTGKRLMQCLPNPEDVKMALEVYKLSLEIEQLELQRDSARQSTLDKEL
# B2: C4BP-ANG1 (designed binder, not shown: small tags and cut ends)
# chain: ETPEGCEQVLTGKRLMQCLPNPEDVKMALEVYKLSLEIEQLELQRDSARQSTLDKELGGGGSKPFRDCADVYQAGFNKSGIYTIYINNMPEPKKVFCNMDVNGGGWTVIQHREDGSLDFQRGWKEYKMGFGNPSGEYWLGNEFIFAITSQRQYMLRIELMDWEGNRAYSQYDRFHIGNEKQNYRLYLKGHTGTAGKQSSLILHGADFSTKDADNDNCMCKCALMLTGGWWFDACGPSNLNGMFYTAGQNHGKLNGIKWHYFKGPSYSLRSTTMMIRPLDF
# notes: Heptamer through disulfide-bridged C4BP segment; also called C4BP-ANG1 chimeric fusion protein
# How the values were obtained:
# Tie2-Fc = Tie2-Fc (UniProt Q02763); test: co-immunoprecipitation: anti-Fc IP of Tie2-Fc, anti-His blot
# Tie2 receptor on HUVEC = Tie2 receptor on HUVEC (human, UniProt Q02763 23-1124); test: summary sentence of Example 3 (co-IP and HUVEC activation)
binder,measurement,setting,value
B1,binding,Tie2-Fc,binds
same,binding,Tie2 receptor on HUVEC,binds
B2,binding,Tie2-Fc,binds

# — patent publication US20230091105A1 (NORTHWESTERN UNIVERSITY, published 2023)
